The values below come from publication PMC13086964, “USP7 deubiquitinase stabilizes FAN1 to support DNA crosslink repair and suppress CAG repeat expansion” (Nature Communications, 2026).

Chains of the proteins cited; added tags and fusions are not shown.
UniProt Q9Y2M0: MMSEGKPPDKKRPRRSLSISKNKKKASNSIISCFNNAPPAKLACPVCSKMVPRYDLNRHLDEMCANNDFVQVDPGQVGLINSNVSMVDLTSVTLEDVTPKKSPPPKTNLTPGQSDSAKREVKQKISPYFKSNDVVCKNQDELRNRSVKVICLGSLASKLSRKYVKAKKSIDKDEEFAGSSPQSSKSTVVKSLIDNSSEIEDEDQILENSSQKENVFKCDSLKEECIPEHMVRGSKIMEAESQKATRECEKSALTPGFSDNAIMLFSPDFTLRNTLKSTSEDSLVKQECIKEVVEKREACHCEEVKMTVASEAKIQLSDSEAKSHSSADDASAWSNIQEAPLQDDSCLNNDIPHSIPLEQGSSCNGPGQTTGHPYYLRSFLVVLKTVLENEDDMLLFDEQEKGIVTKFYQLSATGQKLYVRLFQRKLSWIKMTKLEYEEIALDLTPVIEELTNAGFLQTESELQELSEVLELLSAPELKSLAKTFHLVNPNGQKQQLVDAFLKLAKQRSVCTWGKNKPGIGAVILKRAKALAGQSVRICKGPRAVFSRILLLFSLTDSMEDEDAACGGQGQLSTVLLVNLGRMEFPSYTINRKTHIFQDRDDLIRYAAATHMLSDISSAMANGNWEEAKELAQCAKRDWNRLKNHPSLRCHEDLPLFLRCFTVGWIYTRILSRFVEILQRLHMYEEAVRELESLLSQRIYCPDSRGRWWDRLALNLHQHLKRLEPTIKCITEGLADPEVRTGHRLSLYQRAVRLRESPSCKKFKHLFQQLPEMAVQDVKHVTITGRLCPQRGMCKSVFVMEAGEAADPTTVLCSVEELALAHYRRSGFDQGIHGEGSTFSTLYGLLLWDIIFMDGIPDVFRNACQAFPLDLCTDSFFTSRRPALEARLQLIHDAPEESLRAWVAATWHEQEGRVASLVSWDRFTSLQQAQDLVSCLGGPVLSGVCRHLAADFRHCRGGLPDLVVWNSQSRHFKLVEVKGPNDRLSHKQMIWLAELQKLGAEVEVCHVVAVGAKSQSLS

For this assay, the target named is GFP-FAN1 wild-type (wt), full-length (human) (UniProt Q9Y2M0). Kind of assay: affinity purification with mass spectrometry; GFP-Trap agarose on nuclei-enriched, Benzonase-treated lysates of HEK293 Flp-In T-REx eGFP-FAN1 cells (parental HEK293 as control); IP buffer 50 mM Tris-HCl pH 7.5, 100 mM NaCl, 0.1% NP40; 1 h, 4 °C; LC-MS/MS, n = 3.

Results are given in words; binding and its absence hold for the method and conditions named. In cells and extracts the contact can be indirect. Here binding means that the protein was enriched with, or labelled near, the bait; the list need not be complete.

B1: endogenous USP48 (HEK293 cells) (enzyme, UniProt Q86UV5 1-1035)
chain: MAPRLQLEKAAWRWAETVRPEEVSQEHIETAYRIWLEPCIRGVCRRNCKGNPNCLVGIGEHIWLGEIDENSFHNIDDPNCERRKKNSFVGLTNLGATCYVNTFLQVWFLNLELRQALYLCPSTCSDYMLGDGIQEEKDYEPQTICEHLQYLFALLQNSNRRYIDPSGFVKALGLDTGQQQDAQEFSKLFMSLLEDTLSKQKNPDVRNIVQQQFCGEYAYVTVCNQCGRESKLLSKFYELELNIQGHKQLTDCISEFLKEEKLEGDNRYFCENCQSKQNATRKIRLLSLPCTLNLQLMRFVFDRQTGHKKKLNTYIGFSEILDMEPYVEHKGGSYVYELSAVLIHRGVSAYSGHYIAHVKDPQSGEWYKFNDEDIEKMEGKKLQLGIEEDLAEPSKSQTRKPKCGKGTHCSRNAYMLVYRLQTQEKPNTTVQVPAFLQELVDRDNSKFEEWCIEMAEMRKQSVDKGKAKHEEVKELYQRLPAGAEPYEFVSLEWLQKWLDESTPTKPIDNHACLCSHDKLHPDKISIMKRISEYAADIFYSRYGGGPRLTVKALCKECVVERCRILRLKNQLNEDYKTVNNLLKAAVKGSDGFWVGKSSLRSWRQLALEQLDEQDGDAEQSNGKMNGSTLNKDESKEERKEEEELNFNEDILCPHGELCISENERRLVSKEAWSKLQQYFPKAPEFPSYKECCSQCKILEREGEENEALHKMIANEQKTSLPNLFQDKNRPCLSNWPEDTDVLYIVSQFFVEEWRKFVRKPTRCSPVSSVGNSALLCPHGGLMFTFASMTKEDSKLIALIWPSEWQMIQKLFVVDHVIKITRIEVGDVNPSETQYISEPKLCPECREGLLCQQQRDLREYTQATIYVHKVVDNKKVMKDSAPELNVSSSETEEDKEEAKPDGEKDPDFNQSNGGTKRQKISHQNYIAYQKQVIRRSMRHRKVRGEKALLVSANQTLKELKIQIMHAFSVAPFDQNLSIDGKILSDDCATLGTLGVIPESVILLKADEPIADYAAMDDVMQVCMPEEGFKGTGLLGH
As for B1, the binding result is “binds”.
